Experimental data as given in US20220041709A1 (MITSUBISHI TANABE PHARMA, published 2022).
No constants are given. Whether binding was seen depends on the method and setting. Some binding calls cover weakened binding; strength is not graded here.

T1: Human IL-33 (human, UniProt O95760 112-270, limits assumed)
T1 construct: also called NF-HEV
T1 sequence (looked up): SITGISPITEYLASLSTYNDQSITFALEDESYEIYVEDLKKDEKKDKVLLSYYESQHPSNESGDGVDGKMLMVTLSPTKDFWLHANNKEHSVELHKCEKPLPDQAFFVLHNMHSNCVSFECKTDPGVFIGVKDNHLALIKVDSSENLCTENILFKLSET


Assays:
Human IL-33 [1] = target: T1, Human IL-33; assay: ELISA on plate-coated human IL-33; 10 mg/mL formulation stored 1, 2 and 3 years at 2 to 8 C
Human IL-33 [2] = target: T1, Human IL-33; assay: ELISA on plate-coated human IL-33; 150 mg/mL formulation stored 3 and 6 months at 2 to 8 C

Row | binding (Human IL-33 [1]) | binding (Human IL-33 [2]) | Binder
1 | binds | binds | human anti-IL-33 monoclonal antibody A25-2C02 (antibody, human IgG1, lambda, V domains shown) VH: EVQLLESGGGLVQPGGSLRLSCAASGFTFSNYYMHWVRQAPGKGLEWVSSISARSSYIYYADSVKGRFTISRDNSKNTLYLQMNSLRAEDTAVYYCARLATRNNAFDIWGQGTLVTVSS VL: QSVLTQPPSASGTPGQRVTISCSGSSSNIGRNAVNWYQQLPGTAPKLLIYASNMRVSGVPDRFSGSKSGTSASLAISGLRSEDEADYYCWAWDDSQKVGVFGGGTKLTVLG
2 | binds | binds | human anti-IL-33 monoclonal antibody A26-1F02 (antibody, human IgG1, lambda, V domains shown) VH: EVQLLESGGGLVQPGGSLRLSCAASGFTFSNYYMHWVRQAPGKGLEWVSSISARSSYLYYADSVKGRFTISRDNSKNTLYLQMNSLRAEDTAVYYCARLATRHVAFDIWGQGTLVTVSS VL: QSVLTQPPSASGTPGQRVTISCSGSSSNIGNNAVNWYQQLPGTAPKLLIYASNMRRPGVPDRFSGSKSGTSASLAISGLRSEDEADYYCEAWDDSQKAVVFGGGTKLTVLG
3 | binds | binds | human anti-IL-33 monoclonal antibody A25-3H04 (antibody, human IgG1, lambda, V domains shown) VH: EVQLLESGGGLVQPGGSLRLSCAASGFTFSRYYMHWVRQAPGKGLEWVSSISAQSSHIYYADSVEGRFTISRDNSKNTLYLQMNSLRAEDTAVYYCARLATRQNAFDIWGQGTLVTVSS VL: QSVLTQPPSASGTPGQRVTISCSGSSSNIGRNAVNWYQQLPGTAPKLLIYASNMRRSGVPDRFSGSKSGTSASLAISGLRSEDEADYYCSAWDDSQKVVVFGGGTKLTVLG
4 | binds | binds | human anti-IL-33 monoclonal antibody A23-1A05 (antibody, human IgG1, lambda, V domains shown) VH: EVQLLESGGGLVQPGGSLRLSCAASGFTFSNYYMHWVRQAPGKGLEWVSSISARSRYHYYADSVKGRFTISRDNSKNTLYLQMNSLRAEDTAVYYCARLATRHNAFDIWGQGTLVTVSS VL: QSVLTQPPSASGTPGQRVTISCSGSSSNIGNNAVSWYQQLPGTAPKLLIYASNMRVIGVPDRFSGSKSGTSASLAISGLRSEDEADYYCGAWDDSQKALVFGGGTKLTVLG
5 | binds | binds | human anti-IL-33 monoclonal antibody A10-1C04 (antibody, human IgG1, lambda, V domains shown, Detected with anti-human IgG antibody in the ELISA) VH: EVQLLESGGGLVQPGGSLRLSCAASGFTFSDYYMNWVRQAPGKGLEWVSSISRYSSYIYYADSVKGRFTISRDNSKNTLYLQMNSLRAEDTAVYYCARDIGGMDVWGQGTLVTVSS VL: QSVLTQPPSASGTPGQRVTISCTGSSSNIGAVYDVHWYQQLPGTAPKLLIYRNNQRPSGVPDRFSGSKSGTSASLAISGLRSEDEADYYCQTYDSSRWVFGGGTKLTVLG
